No constants are given. Whether binding was seen depends on the method and setting. Binding seen in cells or lysates may run through a third protein. A result given as binding can be weak or reduced; the word gives no strength.
Biological target: Snap-tagged MreB (E. coli) (UniProt P0A9X4)
Assay: pull-down; cleared lysate of the Snap-tagged MreB E. coli strain incubated for different times with Snap capture beads; EF-Tu detected by western blotting with an EF-Tu antibody

Chains of the proteins cited; added tags and fusions are not shown. Lines headed by an entry give the natural chain unless they say otherwise; changes in a name come on top.
UniProt P0A9X4: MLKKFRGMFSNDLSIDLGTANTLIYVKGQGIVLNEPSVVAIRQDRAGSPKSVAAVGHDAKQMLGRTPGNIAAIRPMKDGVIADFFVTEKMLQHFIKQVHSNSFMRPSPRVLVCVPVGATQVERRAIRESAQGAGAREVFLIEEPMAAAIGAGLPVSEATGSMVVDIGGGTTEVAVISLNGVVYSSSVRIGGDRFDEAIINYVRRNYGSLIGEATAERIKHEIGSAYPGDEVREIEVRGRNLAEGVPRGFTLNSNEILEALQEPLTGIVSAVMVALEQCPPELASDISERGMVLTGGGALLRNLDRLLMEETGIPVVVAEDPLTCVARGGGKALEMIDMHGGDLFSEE
UniProt P0CE47: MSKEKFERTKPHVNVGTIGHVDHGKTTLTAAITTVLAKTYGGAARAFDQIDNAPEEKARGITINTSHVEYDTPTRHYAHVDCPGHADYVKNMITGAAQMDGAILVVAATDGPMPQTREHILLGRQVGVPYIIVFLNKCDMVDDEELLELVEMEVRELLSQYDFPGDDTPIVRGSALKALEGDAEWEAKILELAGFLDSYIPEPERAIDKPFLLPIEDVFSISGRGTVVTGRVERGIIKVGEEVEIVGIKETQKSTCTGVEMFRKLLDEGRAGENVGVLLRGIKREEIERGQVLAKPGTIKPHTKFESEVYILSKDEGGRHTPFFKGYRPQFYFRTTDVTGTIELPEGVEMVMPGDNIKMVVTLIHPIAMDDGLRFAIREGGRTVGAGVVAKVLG

binding: binds
Substance: EF-Tu (from UniProt P0CE47)

— PMC4109008
